The whole screen tested about 320,000 compounds, of which about 2,100 (0.66%) were called active. The inconclusive results got no clear call from the source; some entries with a clear call stand among them for comparison. Calls come from the whole dose curve; as a rule, active = well fitted inhibition curve with a large enough effect in the signal ratio, with a control signal flat (not every such curve was filed as active); inconclusive = small, poorly fitted or top-dose-only effect, or effect the other way, or a change in a side signal; inactive = flat fitted curve, though single readings scatter; the % refers to the signal ratio. Where the call is inconclusive, the potency comes from a doubtful curve fit.
Assay: qHTS Assay for Lipid Storage Modulators in Drosophila S3 Cells
Conditions: BODIPY lipid droplet fluorescence, 18-24 h, cells fed with added oleic acid; lipid storage change, negative = inhibition: at 46.1 µM (top of the series) unless noted
Summary of the method: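 Drosophila S3 cells loaded with oleic acid (400 uM, as added) and compounds at several concentrations; lipid droplets imaged by 488-nm laser-scanning cytometry, 500–530 nm intensity and object ratio to cell channel. Percent activity normalized to 20 uM Triacsin C.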
% is set by controls: 0 for no effect and ±100 for the full control effect; potency is the fitted concentration of half-maximal effect.

Row | SMILES | Potency | lipid storage change, negative = inhibition
1 | O=C(CCC(=O)N1CCN(c2ccc(C(F)(F)F)cn2)CC1)c1cccs1 | inconclusive: 9.2 µM [activator, partial curve, poor fit] | 
2 | COC(=O)c1ccc(N2C(=O)CC(N3CCC(O)(c4ccc(Br)cc4)CC3)C2=O)cc1 (configuration not stated) |  | inconclusive: 174%
3 | Cc1ccnc(NC(=O)c2ccccc2NC(=O)c2ccc(Cl)cc2Cl)c1 | inconclusive: 29.1 µM [falling, single point] | 
4 | O=C1CC(c2ccc(Cl)cc2)CC(O)=C1C=NCCN1CCNCC1 (configuration not stated) |  | inconclusive: 6.81%
5 | C/C(=N\S(=O)(=O)c1ccc(C)cc1)NC(=S)Nc1ccccc1 |  | inconclusive: -52.7%
6 | CCCCOc1ccc(NC(=O)CSc2cccc3cccnc23)cc1 |  | inconclusive: -0.716%
7 | CC(C)c1ccc(C(CC(=O)O)NC(=O)c2cccs2)cc1 (configuration not stated) |  | inconclusive: -10.6%
8 | Cc1ccc(NS(=O)(=O)c2cccc(C(=O)NNC(=O)NC3CCCCC3)c2)c(C)c1 |  | inconclusive: 14%
9 | NS(=O)(=O)c1ccc2nc(NC(=O)c3ccc4c(c3)OCCO4)sc2c1 |  | inconclusive: -12.3%
10 | CC(CNC(=O)CCn1ccc2cc(S(=O)(=O)N3CCCC3)ccc21)c1ccccc1 (configuration not stated) | inconclusive: 2.59 µM [activator, partial curve] | 
11 | COc1ccc(CNC(=O)CN2CCC(NC(=O)c3ccc(OC)cc3)CC2)cc1 | inconclusive: 0.82 µM [falling, partial curve, poor fit] | 
12 | O=C1CC(N2CCN(c3ccc(F)cc3)CC2)C(=O)N1Cc1ccc(N2CCCC2=O)cc1 (configuration not stated) |  | inconclusive: -14.8%
13 | CCOc1ccc(C(=O)COC(=O)c2cc(=O)[nH]c3ccccc23)cc1 |  | inconclusive: -0.82%
14 | CCOC(=O)C1(CCCc2ccccc2)CCN(C(=O)CCN2CCCCC2=O)CC1 |  | inconclusive: -25.8%
15 | Cc1ccc(CN2CCC(CO)(CC3CCCCO3)CC2)o1 (configuration not stated) |  | inconclusive: 37.2%
16 | Cc1ccc(-n2nnnc2SCC(=O)Nc2cccnc2Cl)cc1 |  | inconclusive: -23.5%
17 | O=C(Nc1ccccc1)N1CCC(=S)Nc2ccccc21 |  | inconclusive: 23.4%
18 | CCOCCCNC(=O)C(c1ccc(Cl)cc1)N1CCN(C(=O)c2ccco2)CC1 (configuration not stated) | inconclusive: 4.11 µM [falling, full curve] | 
19 | Clc1nc(-c2n[nH]nc2Cl)n[nH]1 |  | inconclusive: 0.503%
20 | Cc1occc1-c1n[nH]c(=S)n1-c1ccccc1 |  | inconclusive: -6.38%
21 | CCOC(=O)C(NC(=O)Nc1ccc(C(N)=O)cc1)(c1ccccc1)C(F)(F)F (configuration not stated) |  | inconclusive: -4.04%
22 | CN(C)CCCN1C(=O)c2cccc3cccc(c23)C1=O | inconclusive: 29.1 µM [activator, single point] | 
23 | Cc1ccccc1C#N |  | inconclusive: 28.4%
24 | Cc1cc(SCc2ccc(Cl)cc2)nc(=O)[nH]1 |  | inconclusive: 5.06%
25 | COC(=O)Nc1ccc(S(=O)(=O)N2CCCC(C(=O)O)C2)cc1 (configuration not stated) |  | inconclusive: 3.02%
26 | O=[N+]([O-])c1ccccc1S(=O)(=O)N1CCN(c2ccc(F)cc2)CC1 |  | inconclusive: -100%

Look-ups from above:
Potency with `CCOCCCNC(=O)C(c1ccc(Cl)cc1)N1CCN(C(=O)c2ccco2)CC1` (configuration not stated) is entered as inconclusive: 4.11 µM [falling, full curve]
lipid storage change, negative = inhibition with `CC(C)c1ccc(C(CC(=O)O)NC(=O)c2cccs2)cc1` (configuration not stated) is entered as inconclusive: -10.6%

(next part)

Row | SMILES | Potency | lipid storage change, negative = inhibition
27 | Cc1ccccc1NC(=O)CN1C(=O)COc2ccc(Cl)cc21 |  | inconclusive: 65.5% [activator]
28 | O=CN1CCN(S(=O)(=O)c2ccc(Cl)c(C(=O)O)c2)CC1 |  | inconclusive: 1.27%
29 | CCc1ccccc1NC(=O)[C@@H]1CCC(=O)N1C1OC(=O)c2ccccc21 (some centres not stated) |  | inconclusive: 60.6%
30 | COc1ccccc1NC(=O)Cn1c(CN2CCCCC2)nc2ccccc2c1=O |  | inconclusive: 31.8%
31 | COc1ccc(NC(=O)CN(C)S(=O)(=O)c2cccc3nsnc23)cc1OC |  | inconclusive: -2.42%
32 | Cc1cccc(C(=O)N2CC3(C)CC2CC(C)(C)C3)c1 (configuration not stated) |  | inconclusive: 32.2%
33 | COc1ccc(CNC(=O)CN(Cc2ccco2)C(=O)CCC(=O)Nc2ccccn2)cc1 | inconclusive: 6.51 µM [activator, single point] | 
34 | CC(=O)c1cccc(CN2CCC(n3nccc3NC(=O)c3ccc4c(c3)OCO4)CC2)c1 |  | inconclusive: -1.23%
35 | O=C(Nc1cc(-c2nc3ncccc3o2)ccc1Cl)c1ccc2c(c1)OCO2 |  | inconclusive: -7.9%
36 | CC(=O)c1c(C)[nH]c(C(=O)N2CC(C)CC(C)C2)c1C (configuration not stated) |  | inconclusive: -78.1%
37 | CCOC(=O)CCCNC(=O)COC(=O)c1cccc(C)c1O |  | inconclusive: 22.1%
38 | N#Cc1cn(Cc2ccncc2)c(=O)[nH]c1=O |  | inconclusive: 26.3% [at 9.22 µM]
39 | Cc1ccc(S(=O)(=O)Cc2nnnn2-c2ccccc2)cc1 |  | inactive
40 | Cc1cc(NC(=O)Cn2cnc3c(nnn3-c3ccc(C)c(Cl)c3)c2=O)no1 |  | inconclusive: -13.8% [at 9.22 µM]
41 | O=C(Nc1cccnc1)c1c(F)c(F)c(F)c(F)c1F | inconclusive: 29.1 µM [falling, single point] | 
42 | COC(=O)C1=C(C)NC(=O)CC1c1cc(Br)ccc1F (configuration not stated) | inconclusive: 29.1 µM [rising, single point] | 
43 | COC(=O)c1cc(C(C)=O)c(C)[nH]c1=O |  | inconclusive: 4.2%
44 | NS(=O)(=O)c1ccc(CNc2ncnc3sccc23)cc1 |  | inactive
45 | NS(=O)(=O)c1cccc(NC(=O)CC23CC4CC(CC(Br)(C4)C2)C3)c1 |  | inconclusive: 22.1%
46 | NC(=O)c1cc(S(=O)(=O)N2CCOCC2)ccc1Sc1ccccc1N |  | inconclusive: 4.52%
47 | O=C(NCCc1ccccc1)C(c1cccs1)N(C(=O)CCl)c1ccc(Cl)cc1 (configuration not stated) | inconclusive: 16.4 µM [falling, single point] | 
48 | Cc1cc(C(=O)COc2cccc3cccnc23)c(C)n1C |  | inconclusive: -3.39%
49 | O=C(Nc1ccc(NC(=O)c2cccs2)cn1)c1ccccc1 |  | inactive
50 | COc1ccc(CCN(C)C(=O)C2CCN(Cc3ccccc3)CC2)cc1OC |  | inconclusive: -26.7%
51 | Cc1ccc(OCc2cc(C(=O)N3CCN(C4CCCCC4)CC3)no2)cc1C |  | inconclusive: 55.2%
52 | COc1cccc(C(=O)NCc2cn3ccsc3n2)c1 |  | inconclusive: 40.4%
